Source: patent publication US11230540B2, “Substituted triazole derivatives and uses thereof” (Bayer Pharma Aktiengesellschaft, priority 2017, dated 2022)
At least one structure is not confirmed: it was looked up by name or label, or the drawing left a doubt.

Amino acid sequences for entries named in this document (tags omitted).
UniProt P37288, whole entry: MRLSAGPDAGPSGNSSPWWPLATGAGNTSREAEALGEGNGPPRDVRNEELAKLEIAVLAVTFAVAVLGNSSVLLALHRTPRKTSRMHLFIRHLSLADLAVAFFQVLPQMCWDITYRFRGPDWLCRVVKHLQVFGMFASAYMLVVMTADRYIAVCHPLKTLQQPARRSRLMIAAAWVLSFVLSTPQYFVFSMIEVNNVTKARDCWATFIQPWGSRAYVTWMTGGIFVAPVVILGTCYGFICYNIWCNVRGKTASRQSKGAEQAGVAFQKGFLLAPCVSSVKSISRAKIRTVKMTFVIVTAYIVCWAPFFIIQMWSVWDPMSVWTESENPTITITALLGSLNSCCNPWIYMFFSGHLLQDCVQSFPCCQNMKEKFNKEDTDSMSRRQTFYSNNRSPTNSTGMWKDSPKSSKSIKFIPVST

Target: T1, human V1a receptor (Homo sapiens, UniProt P37288)
T1 construct: expressed in transfected cells; host or cells: CHO K1 (Chinese hamster ovary), also stably transfected with a modified aequorin
Experiment: Cellular in vitro assay for vasopressin receptor activity, V1a receptor cell line (aequorin luminescence)
Format: cell-based
Details: selectivity ratio of the IC50 values hV2/hV1a
Description: B-1. Cellular In Vitro Assay for Determining Vasopressin Receptor Activity
The identification of agonists and antagonists of the V1a and V2 vasopressin receptors from humans, rats and dogs as well as the quantification of the activity of the compounds of the invention is carried out using recombinant cell lines. These cell lines originally derive from a hamster's ovary epithelial cell (Chinese Hamster Ovary, CHO K1, ATCC: American Type Culture Collection, Manassas, Va. 20108, USA). The test cell lines constitutively express the human, rat or dog V1a or V2 receptors. […] The resulting vasopressin receptor cells react to stimulation of the recombinantly expressed V1a receptors by intracellular release of calcium ions, which can be quantified by the resulting photoprotein luminescence. […] The bioluminescence of the cell lines is detected using a suitable luminometer [Milligan G, Marshall F, Rees S, Trends in Pharmacological Sciences 17, 235-237 (1996)]. […]
On the day before the assay, the cells are plated out in culture medium (DMEM/F12, 2% FCS, 2 mM glutamine, 10 mM HEPES, 5 μg/ml coelenterazine) in 384-well microtiter plates and kept in a cell incubator (96% humidity, 5% v/v CO2, 37° C.). […] The resulting light signal is measured immediately in a luminometer. […]

SMILES | ratio IC50 hV2/hV1a
O=C(c1nc(Cn2nc(-c3ccc(Cl)cc3)n(C[C@H](O)C(F)(F)F)c2=O)nn1CCC(F)(F)F)N1CCOCC1 [Example 26, 5-(4-Chlorophenyl)-2-{[5-(morpholin-4-ylcarbonyl)-1-(3,3,3-trifluoropropyl)-1H-1,2,4-triazol-3-yl]methyl}-4-[(2S)-3,3,3-trifluoro-2-hydroxypropyl]-2,4-dihydro-3H-1,2,4-triazol-3-one] | 9.7
CC(C)(O)CNC(=O)c1nc(Cn2nc(-c3ccc(Cl)cc3)n(C[C@H](O)C(F)(F)F)c2=O)nn1-c1cccnc1Cl [Example 15, 3-({3-(4-Chlorophenyl)-5-oxo-4-[(2S)-3,3,3-trifluoro-2-hydroxypropyl]-4,5-dihydro-1H-1,2,4-triazol-1-yl}methyl)-1-(2-chloropyridin-3-yl)-N-(2-hydroxy-2-methylpropyl)-1H-1,2,4-triazole-5-carboxamide] | 14.1
